Measurements reported in paper PMC7042299.
Substitutions are numbered along the chain they refer to. Results are given in words; binding and its absence hold for the method and conditions named. In cells and extracts the contact can be indirect. Some binding calls cover weakened binding; strength is not graded here. Sequences can lack the tags named with a protein.

How the values were obtained:
[1] = biological target: T1, T7-DHX34 p.Glu444Asp (human) (UniProt Q14147); experiment: co-IP; HEK293T cells co-transfected with T7-DHX34 (wild type or variant) and FLAG-UPF1; anti-T7 immunoprecipitates probed for UPF1
T1 sequence: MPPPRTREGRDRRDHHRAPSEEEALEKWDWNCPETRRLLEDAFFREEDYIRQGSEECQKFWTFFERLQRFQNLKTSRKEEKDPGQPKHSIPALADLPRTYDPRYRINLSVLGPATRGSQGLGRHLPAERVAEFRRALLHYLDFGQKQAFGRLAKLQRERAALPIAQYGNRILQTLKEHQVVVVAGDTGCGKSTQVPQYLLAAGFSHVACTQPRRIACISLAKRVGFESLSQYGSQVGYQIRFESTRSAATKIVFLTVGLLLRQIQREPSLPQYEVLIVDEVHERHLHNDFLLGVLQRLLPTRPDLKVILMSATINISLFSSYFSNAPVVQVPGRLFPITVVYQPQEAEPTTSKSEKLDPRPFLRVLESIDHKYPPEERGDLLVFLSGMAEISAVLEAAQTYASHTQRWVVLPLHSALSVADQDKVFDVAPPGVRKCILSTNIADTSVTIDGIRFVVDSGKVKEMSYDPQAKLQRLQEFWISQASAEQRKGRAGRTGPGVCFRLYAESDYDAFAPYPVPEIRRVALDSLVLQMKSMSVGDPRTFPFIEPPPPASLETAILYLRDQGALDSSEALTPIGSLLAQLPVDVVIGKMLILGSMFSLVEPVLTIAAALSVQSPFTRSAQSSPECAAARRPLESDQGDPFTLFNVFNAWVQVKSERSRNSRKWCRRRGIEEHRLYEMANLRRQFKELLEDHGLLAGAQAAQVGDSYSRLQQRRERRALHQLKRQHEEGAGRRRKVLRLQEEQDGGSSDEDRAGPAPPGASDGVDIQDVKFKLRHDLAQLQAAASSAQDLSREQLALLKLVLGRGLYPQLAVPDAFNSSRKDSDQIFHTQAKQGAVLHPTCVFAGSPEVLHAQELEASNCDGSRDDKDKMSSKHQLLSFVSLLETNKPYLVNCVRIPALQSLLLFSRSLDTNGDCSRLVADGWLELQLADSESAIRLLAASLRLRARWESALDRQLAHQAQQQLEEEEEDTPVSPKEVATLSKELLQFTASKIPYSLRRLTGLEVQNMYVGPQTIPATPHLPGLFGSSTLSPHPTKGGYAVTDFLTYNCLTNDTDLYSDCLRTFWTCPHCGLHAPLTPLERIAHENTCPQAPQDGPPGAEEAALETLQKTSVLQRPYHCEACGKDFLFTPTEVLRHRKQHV

[2] = biological target: T2, T7-DHX34 p.Tyr515Cys (human) (UniProt Q14147); experiment: as above
T2 sequence: T1 sequence with D444E, Y515C

B1: FLAG-UPF1 (pcIneo-FLAG-UPF1) (protein, UniProt Q92900 1-1129)
chain: MSVEAYGPSSQTLTFLDTEEAELLGADTQGSEFEFTDFTLPSQTQTPPGGPGGPGGGGAGGPGGAGAGAAAGQLDAQVGPEGILQNGAVDDSVAKTSQLLAELNFEEDEEDTYYTKDLPIHACSYCGIHDPACVVYCNTSKKWFCNGRGNTSGSHIVNHLVRAKCKEVTLHKDGPLGETVLECYNCGCRNVFLLGFIPAKADSVVVLLCRQPCASQSSLKDINWDSSQWQPLIQDRCFLSWLVKIPSEQEQLRARQITAQQINKLEELWKENPSATLEDLEKPGVDEEPQHVLLRYEDAYQYQNIFGPLVKLEADYDKKLKESQTQDNITVRWDLGLNKKRIAYFTLPKTDSGNEDLVIIWLRDMRLMQGDEICLRYKGDLAPLWKGIGHVIKVPDNYGDEIAIELRSSVGAPVEVTHNFQVDFVWKSTSFDRMQSALKTFAVDETSVSGYIYHKLLGHEVEDVIIKCQLPKRFTAQGLPDLNHSQVYAVKTVLQRPLSLIQGPPGTGKTVTSATIVYHLARQGNGPVLVCAPSNIAVDQLTEKIHQTGLKVVRLCAKSREAIDSPVSFLALHNQIRNMDSMPELQKLQQLKDETGELSSADEKRYRALKRTAERELLMNADVICCTCVGAGDPRLAKMQFRSILIDESTQATEPECMVPVVLGAKQLILVGDHCQLGPVVMCKKAAKAGLSQSLFERLVVLGIRPIRLQVQYRMHPALSAFPSNIFYEGSLQNGVTAADRVKKGFDFQWPQPDKPMFFYVTQGQEEIASSGTSYLNRTEAANVEKITTKLLKAGAKPDQIGIITPYEGQRSYLVQYMQFSGSLHTKLYQEVEIASVDAFQGREKDFIILSCVRANEHQGIGFLNDPRRLNVALTRARYGVIIVGNPKALSKQPLWNHLLNYYKEQKVLVEGPLNNLRESLMQFSKPRKLVNTINPGARFMTTAMYDAREAIIPGSVYDRSSQGRPSSMYFQTHDQIGMISAGPSHVAAMNIPIPFNLVMPPMPPPGYFGQANGPAAGRGTPKGKTGRGGRQKNRFGLPGPSQTNLPNSQASQDVASQPFSQGALTQGYISMSQPSQMSQPGLSQPELSQDSYLGDEFKSQIDVALSQDSTYQGERAYQHGGVTGLSQY
- binding [1]: binds
- binding [2]: binds
